{"source": "paper PMC6072853", "about": "(Frontiers in Pharmacology, 2018)", "system": "MCF-7", "experiment": "MTT antiproliferative assay, MCF-7", "type": "cell-based, human", "conditions": "MCF-7, 72 h; read-out: calculated IC50 value", "from_the_text": "Gynecological cancer cell lines, including ovarian (A2780), cervical (HeLa), and breast cancer cell lines (MCF7, T47D, MDA-MB-231, and MDA-MB-361) were purchased from the European Collection of Authenticated Cell Cultures (ECACC, Salisbury, United Kingdom). Additional cervical cell lines (SiHa and C33A) and a non-cancerous immortalized, mammary gland epithelial cell line (hTERT-HME1) were purchased from LGC Standards GmbH (Wesel, Germany). Non-cancerous fibroblast cells (MRC-5) were also obtained from the ECACC. All cells were cultured in minimal essential medium supplemented with 10% fetal bovine serum, 1% non-essential amino acids, and 1% antibiotic-antimycotic mixture, in humidified air containing 5% CO2 at 37°C. Immortalized hTERT-HME1 cells were maintained in serum-free mammary epithelial cell growth medium (MEGM) supplemented with insulin, human epidermal growth factor (hEGF), hydrocortisone, bovine pituitary extract, and an antibiotic-antimycotic mixture. All the medium and supplements were purchased from Lonza Group Ltd. (Basel, Switzerland).\nThe antiproliferative properties of the compounds were assessed by an MTT assay ([Mosmann, 1983]). Cells were seeded onto 96-well microplates at a density of 10,000 cells/well (MDA-MB-361 and C33A) or 5,000 cells/well (all other cell lines). […]", "note": "pIC50: −log10 of the molar value.", "data": [{"compound": "N.N.[Cl][Pt][Cl]", "note": "[CIS, cisplatin, reference compound]", "values": [{"measurement": "pIC50", "value": 5.24}]}]}
